Measurements taken from paper PMC7271451.
Results are given in words; binding and its absence hold for the method and conditions named. Binding seen in cells or lysates may run through a third protein. Some results given as binding are weak or reduced against the parent protein; the word gives no strength.

Sequences of proteins named here, by UniProt entry; tags and fusion partners are left off. Residues count along the entry.
UniProt P40189, residues 23-918: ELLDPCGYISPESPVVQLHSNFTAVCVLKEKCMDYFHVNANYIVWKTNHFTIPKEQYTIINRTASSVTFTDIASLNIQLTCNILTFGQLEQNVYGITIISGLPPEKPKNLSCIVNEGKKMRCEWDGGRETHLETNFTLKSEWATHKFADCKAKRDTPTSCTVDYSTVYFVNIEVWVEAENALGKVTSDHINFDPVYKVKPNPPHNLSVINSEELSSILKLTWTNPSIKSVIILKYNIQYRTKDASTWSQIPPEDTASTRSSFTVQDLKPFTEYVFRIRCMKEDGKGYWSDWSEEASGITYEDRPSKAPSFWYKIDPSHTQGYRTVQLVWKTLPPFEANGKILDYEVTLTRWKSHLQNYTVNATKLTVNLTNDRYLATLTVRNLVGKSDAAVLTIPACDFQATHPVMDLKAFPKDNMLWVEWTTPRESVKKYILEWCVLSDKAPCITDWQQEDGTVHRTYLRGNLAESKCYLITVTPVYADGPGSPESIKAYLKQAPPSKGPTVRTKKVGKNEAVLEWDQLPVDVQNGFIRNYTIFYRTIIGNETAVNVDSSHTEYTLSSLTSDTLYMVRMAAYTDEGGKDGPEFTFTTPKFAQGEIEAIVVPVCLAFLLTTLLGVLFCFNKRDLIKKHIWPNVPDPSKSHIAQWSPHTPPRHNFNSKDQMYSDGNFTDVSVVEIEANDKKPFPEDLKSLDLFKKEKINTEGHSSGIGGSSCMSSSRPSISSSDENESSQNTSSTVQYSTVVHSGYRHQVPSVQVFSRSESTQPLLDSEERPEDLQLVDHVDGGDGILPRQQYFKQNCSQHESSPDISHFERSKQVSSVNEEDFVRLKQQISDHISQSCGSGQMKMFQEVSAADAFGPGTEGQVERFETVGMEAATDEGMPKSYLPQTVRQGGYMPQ
UniProt O00463: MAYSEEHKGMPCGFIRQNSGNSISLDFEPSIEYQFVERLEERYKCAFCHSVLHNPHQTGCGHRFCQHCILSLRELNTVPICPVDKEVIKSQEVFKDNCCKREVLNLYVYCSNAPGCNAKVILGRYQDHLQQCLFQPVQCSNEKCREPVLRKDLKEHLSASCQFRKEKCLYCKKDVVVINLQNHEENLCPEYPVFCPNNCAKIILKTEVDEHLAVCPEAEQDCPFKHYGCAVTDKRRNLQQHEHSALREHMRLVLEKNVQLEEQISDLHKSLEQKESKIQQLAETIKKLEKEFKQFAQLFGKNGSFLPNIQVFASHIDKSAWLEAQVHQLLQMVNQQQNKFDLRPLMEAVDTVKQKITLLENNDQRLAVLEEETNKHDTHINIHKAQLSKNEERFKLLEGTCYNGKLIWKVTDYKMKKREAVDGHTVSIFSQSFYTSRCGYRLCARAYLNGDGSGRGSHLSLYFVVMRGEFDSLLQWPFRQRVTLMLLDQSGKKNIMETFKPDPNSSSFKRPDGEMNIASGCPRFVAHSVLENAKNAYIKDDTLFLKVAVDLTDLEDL

Target: Glycoprotein 130 (IL-6 β receptor) (human (endogenous in HT-29)) (UniProt P40189)
Assay: co-IP; endogenous proteins of HT-29 cells, with or without 5 mM NaB for 24 h; lysed in NP-40 buffer; primary antibodies on protein G agarose beads overnight at 4 °C; western blot

Substance: Tumor necrosis factor receptor-associated factor 5 (from UniProt O00463 1-557)
- binding: binds
